Assay results taken from PubChem BioAssay AID2685 (National Center for Advancing Translational Sciences (NCATS), 2010).
Some of the results follow. Shown are side measurements of this screen, not its main read-out; they come without a call. The list favours compounds with an active or inconclusive main result. Potencies come from curve fits of mixed quality, noted in brackets.

Assay: qHTS Assay for Lipid Storage Modulators in Drosophila S3 Cells;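 as to cell number change: cells counted by Cell Tracker Red CMTPX staining in the red channel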
Settings: BODIPY lipid droplet fluorescence, 18-24 h; for cell number change: measured here: cell count max response, cells fed with added oleic acid
Method in brief: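 Laser-scanning cytometry quantifies lipid droplet accumulation (500–530 nm total intensity; droplet/cell object ratio) in oleic acid-fed (400 uM added) Drosophila S3 cells treated with a concentration series. 20 uM Triacsin C defined 100% inhibition.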

[1] = measured here: lipid fluorescence (Fed channel) AC50, cells fed with added oleic acid
[2] = measured here: cell number channel AC50, cells fed with added oleic acid

Row | Structure (SMILES) | cell number change | AC50 [1] | AC50 [2]
1 | Cc1cc(C)cc(N(CC(=O)N2CCCCCC2)S(C)(=O)=O)c1 | -9.84% | 0.82 µM [rising, single point] | 
2 | O=C(CCNC(=O)c1ccccc1Cl)Nc1cc(C(F)(F)F)ccc1N1CCCC1 | 35.1% | 35.5 µM [falling, single point] | 
3 | CC1(C)CC(N2CCN(c3ccccc3)CC2)=CC(=[N+]2CCCC2)C1 | -41.1% | 23.1 µM [falling, single point] | 18.4 µM [falling, partial curve, poor fit]
4 | CCOC(=O)c1c(S(=O)(=O)NCCCc2ccco2)c(C)n(C)c1C |  | 10.3 µM [rising, partial curve] | 
5 | C=C1CCN([C@H](C(=O)NCc2ccc(OC)cc2)C(C)C)S(=O)(=O)c2ccccc21 | 21% | 1.84 µM [rising, full curve, poor fit] | 
6 | C=C(C)CNC(=S)N/N=C(\C)c1ccc(Cl)s1 | -50.4% | 16.4 µM [falling, partial curve] | 20.6 µM [falling, partial curve]
7 | CC(=O)Nc1ccc2oc(-c3cc(F)c(F)cc3Cl)nc2c1 | -5.61% | 0.651 µM [rising, single point] | 
8 | Cc1cc(C(=O)COc2ccccc2C#N)c(C)n1C1CC1 | 3.62% | 0.092 µM [rising, full curve, poor fit] | 
9 | CCC(C)c1ccc(NC(=O)CC(C)=O)cc1 (stereo not given) | 1.75% | 18.4 µM [falling, partial curve] | 
10 | CC(C)CCOc1ccc(CO[C@@H]2[C@H]3OC(C)(C)O[C@H]3O[C@@H]2C(O)CO)cc1 (stereo not given in full) | -9.72% |  | 
11 | CCn1c(=S)sc2c(=O)n(CC(=O)Nc3ccc(Cl)cc3)c(C)nc21 | -0.612% |  | 
12 | CN(CC(=O)Nc1cccc(F)c1)C(=O)CC1CCCCC1 | 16.5% |  | 4.11 µM [falling, single point]
13 | CCCOC(=O)Nc1sc2c(c1C(=O)OCC)CCC2 | -29.2% | 1.64 µM [rising, partial curve, poor fit] | 
14 | O=C(CSc1ncccn1)Nc1ccc2c(c1)CCC2 | 21.9% | 18.4 µM [rising, single point] | 
15 | CCOc1ccc(CN(C)CC(=O)Nc2ccc([N+](=O)[O-])cc2Cl)cc1 | 1.51% | 2.59 µM [rising, single point] | 
16 | CCn1c(SCC(=O)Nc2ccc(C(C)=O)cc2)nc2nc3c(cc2c1=O)COC(C)(C)C3 | 44% | 29.1 µM [rising, single point] | 29.1 µM [rising, single point]
17 | CCCOc1ccc(CSc2n[nH]c(C)n2)cc1 | 22.7% | 1.84 µM [rising, full curve, poor fit] | 
18 | Cc1ccc(NC(=O)CSc2nc3nc(C)c(Br)cc3[nH]2)cc1F | 1.79% | 18.4 µM [falling, single point] | 
19 | O=C(CCS(=O)(=O)c1ccccc1)Nc1ccc(S(=O)(=O)Nc2ncccn2)cc1 | 0.901% |  | 
20 | COc1ccc(/C=C/c2nnc(NC(=O)COc3ccc(C)cc3)s2)cc1 | -0.15% | 8.2 µM [rising, partial curve] | 

Row | Structure (SMILES) | cell number change | AC50 [1] | AC50 [2]
21 | CCC(C)NC(=O)c1cc(C)no1 (stereo not given) | -63% |  | 29.1 µM [falling, single point]
22 | COc1ccc(Cl)cc1NCCC(O)c1ccc(F)cc1 (stereo not given) | -26.9% | 32.6 µM [falling, single point] | 
23 | O=C(CN1CCOCC1)N1CCCc2c1c(=O)oc1ccc(OCc3ccccc3)cc21 |  | 3.26 µM [rising, partial curve] | 
24 | Oc1ccc(/C=N/n2cnn(Cc3ccccc3Cl)c2=S)c(O)c1 | -9.9% | 0.0366 µM [falling, full curve, poor fit] | 
25 | CC(=O)NCCNc1nc2c(-c3cccc(C)c3)nnn2c2ccccc12 | -22% | 25.9 µM [falling, single point] | 
26 | CCCCn1c(N)c(NCCC(C)C)c(=O)[nH]c1=O | 23.9% | 18.4 µM [rising, single point] | 
27 | CCc1cc(=O)oc2cc(C)cc(OC(C)C(=O)NCC(O)c3ccccc3)c12 (stereo not given) | 24.5% | 4.11 µM [rising, single point] | 
28 | CC12CCC(C(=O)N(NC(=O)c3cccnc3)C1=O)C2(C)C (stereo not given) | -2.22% | 1.16 µM [falling, full curve, poor fit] | 
29 | COc1ccc(NS(=O)(=O)c2cc(NC(=O)c3cccc(OCc4c(C)noc4C)c3)ccc2OC)cc1 | -1.31% | 3.26 µM [rising, full curve] | 
30 | CN(CC(=O)Nc1ccc(S(=O)(=O)N2CCOCC2)cc1)Cc1ccc(F)cc1 | 3.25% | 3.26 µM [falling, single point] | 
31 | Fc1ccc(NCc2cccnc2)cc1F | 3.69% |  | 
32 | CCCCOc1ccc(C(=O)N/C(=C/C=C/c2ccccc2)C(=O)N2CCOCC2)cc1 | -54% | 2.06 µM [rising, partial curve, poor fit] | 29.1 µM [falling, single point]
33 | CCNC(=O)C(=O)Nc1ccc2c(c1)N(S(=O)(=O)c1cccs1)CCC2 | 56.9% |  | 7.31 µM [rising, partial curve]
34 | c1ccc2c(c1)CCN(c1ncnc3c1[nH]c1ccccc13)C2 | -186% |  | 
35 | Cc1cc(C)n(-c2nc3sc4c(c3c3nnc(SCC(N)=O)n23)CC(C)(C)OC4)n1 |  | 20.6 µM [falling, single point] | 
36 | CCOc1ccc(N(C(C)C(=O)NCc2ccco2)S(C)(=O)=O)cc1 (stereo not given) | 76.1% |  | 18.4 µM [rising, partial curve]
37 | Cn1c(-c2ccc(Cl)nc2)nc2cc(Cl)ccc21 | -19.8% | 1.46 µM [falling, partial curve] | 
38 | COc1cccc(NC(=O)Cc2cccs2)c1 | -3.52% | 0.00517 µM [falling, full curve, poor fit] | 
39 | CCN1C(=O)c2cccc3c(S(=O)(=O)Nc4ccc(OC)cc4OC)ccc1c23 | -29% | 5.8 µM [falling, full curve] | 2.91 µM [falling, full curve, poor fit]

Only AC50 [2] and AC50 [1] (two entries from above):
Row	Structure (SMILES)	AC50 [2]	AC50 [1]
37	Cn1c(-c2ccc(Cl)nc2)nc2cc(Cl)ccc21		1.46 µM [falling, partial curve]
38	COc1cccc(NC(=O)Cc2cccs2)c1		0.00517 µM [falling, full curve, poor fit]
